The other results are listed elsewhere or left out.

By UniProt entry, the sequences of proteins in these tests, tags left out.
UniProt Q0JBA9, entry or part of it: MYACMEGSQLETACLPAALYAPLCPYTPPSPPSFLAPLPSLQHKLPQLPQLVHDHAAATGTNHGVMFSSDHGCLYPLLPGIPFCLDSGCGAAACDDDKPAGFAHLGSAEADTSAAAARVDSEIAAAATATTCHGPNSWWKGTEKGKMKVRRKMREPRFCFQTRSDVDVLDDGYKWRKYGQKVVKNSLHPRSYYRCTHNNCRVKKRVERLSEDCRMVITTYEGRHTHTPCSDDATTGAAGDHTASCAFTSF

In the test the target is OsWRKY34 (Oryza sativa, UniProt Q0JBA9 1-250). Description: protein-binding microarray (RPBM); PBS, 2% BSA, 51.3 ng/ul salmon testes DNA, 50 uM zinc acetate, 200 nM TF, 25 C, 1 h; high values mean tight binding. The settings on record: protein: recombinant; tags: N-terminal polyhistidine and DsRed monomer fusion (pET32a); label: CyDye5-dUTP incorporated in the synthesized complementary strand; 3' TTTTT single-stranded linker to array surface; dsDNA, one strand shown. The procedure, abridged:
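A custom Agilent array was converted to double-stranded form by primer extension with Cy5-dUTP and blocked with 2% BSA. Protein at 200 nM in PBS with 2% BSA, salmon testes DNA and 50 µM zinc acetate was applied for 1 h at 25 °C, followed by washing. The proteins were polyhistidine–DsRed N-terminal fusions of transcription factors, expressed in E. coli BL21-CodonPlus and Ni–NTA-purified. The binding signal is per-feature fluorescence intensity (arbitrary units) from an Axon 4000B scanner.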
For the sequence “GGTTATTCATATGTTTTTCATACGTTTTACAATCATCTAACGGAGTCACCTAGTGCAG”, the binding signal is 8360 fluorescence intensity (a.u.).

In the case of “CCACCCCAGCCCATCCATCCGACGGCCCAGATCACGCGCGCGGAGTCACCTAGTGCAG”, the binding signal is 8500 fluorescence intensity (a.u.).

On to “GCTTTTTAGCTCTGCATCTATCTATCTCCTTTTTGCTTTTCGGAGTCACCTAGTGCAG”, for which the binding signal was 8600 fluorescence intensity (a.u.).

Consider “TATACTCCTTATCTTGGATTGGTAGTCTTTAGTTTGCTTTCGGAGTCACCTAGTGCAG”, for which the binding signal was 9320 fluorescence intensity (a.u.).

For “CTGGCCCGGGGTCGGGTGCGACGCGCGGGCGGGGCGGGTGCGGAGTCACCTAGTGCAG”, the binding signal is 11100 fluorescence intensity (a.u.).

As to “GAAGAGGGGAAGGGGAGAGGAGGGAGGCGAGGAGCATGGCCGGAGTCACCTAGTGCAG”, the binding signal was 8120 fluorescence intensity (a.u.).

On to “TTCATATTCAATGTTTGATCGTCCGTCTTATTTGAAGATTCGGAGTCACCTAGTGCAG”, for which the binding signal was 8650 fluorescence intensity (a.u.).

As for “AATAGTTAGTTTTTTTTCACTTTGTACAAGCATTTTTTACCGGAGTCACCTAGTGCAG”, the binding signal is 13000 fluorescence intensity (a.u.).

Consider “CATCAGTACAGGCCCAACTTAAAAATTGCTCGGCCCATTTCGGAGTCACCTAGTGCAG”, for which the binding signal is 8850 fluorescence intensity (a.u.).

On to “CTCTTCTTCTTCGGATTCGCAAGGTCCAAGGGTTTCTCCGCGGAGTCACCTAGTGCAG”, for which the binding signal is 10100 fluorescence intensity (a.u.).

Take “TGCGCCATTAGCGTCACATGGGGTGGGCTCTTGTACACTACGGAGTCACCTAGTGCAG”: the binding signal was 9890 fluorescence intensity (a.u.).

In the case of “ATCACTTATTTGCTTATTTGTTATTCACTCGTTTGAATCACGGAGTCACCTAGTGCAG”, the binding signal was 10300 fluorescence intensity (a.u.).

Turning to “CACCCCTAACCTCGAAATCCTAATCCGCAGATCCTCTGTCCGGAGTCACCTAGTGCAG”, the binding signal was 8210 fluorescence intensity (a.u.).

With “TAGGCAATGCCCGCCGCTGATCTCTTCCTGTCCTTTTCCACGGAGTCACCTAGTGCAG”, the binding signal is 8410 fluorescence intensity (a.u.).

“ACCTCACCCCTCTCTTTCTCTGTTTTCTCTCTCTGCTACTCGGAGTCACCTAGTGCAG”: the binding signal was 10600 fluorescence intensity (a.u.).

As to “GGCCTTGTTCGGTTGGTCCGGGAATGACTGGGGTTGGGCTCGGAGTCACCTAGTGCAG”, the binding signal is 9210 fluorescence intensity (a.u.).

Consider “ACCGCCGCCGCCACACTTCCCCAGCCGCCGCCAACCGCCACGGAGTCACCTAGTGCAG”, for which the binding signal is 8230 fluorescence intensity (a.u.).

On to “CCCACCTCAGCATCCGTCGTCGCTGTCTGCGCACCTCTGCCGGAGTCACCTAGTGCAG”, for which the binding signal was 9010 fluorescence intensity (a.u.).

Take “CAACTCATATCTCTCGTTTTCCACGCGCACGCTTTTCAAACGGAGTCACCTAGTGCAG”: the binding signal was 10300 fluorescence intensity (a.u.).

On to “CCCGTTTGTTATCCGTTCGCCCGCAACGCAACACGGCCACCGGAGTCACCTAGTGCAG”, for which the binding signal was 9480 fluorescence intensity (a.u.).

In the case of “TTAAACTTAAAGCAGTTTGACTTCGATCAAAGTCAAAACACGGAGTCACCTAGTGCAG”, the binding signal was 10700 fluorescence intensity (a.u.).

As to “TCCCGTGGTCTCGCCACCCCGTCGTTCCTGCCGCTCGCGCCGGAGTCACCTAGTGCAG”, the binding signal is 9080 fluorescence intensity (a.u.).

“TGTTTTTCCTGTGTTTTGCAATCCTCTGTTTTACACTTACCGGAGTCACCTAGTGCAG”: the binding signal is 13000 fluorescence intensity (a.u.).

“GCGGTTGACTTAATAGAGGGGCTATTCATATTGATGTTAACGGAGTCACCTAGTGCAG”: the binding signal is 8560 fluorescence intensity (a.u.).

Turning to “TTTCCTTTTCTTTTTCTATTTATTTTTATGGGATATTTCGCGGAGTCACCTAGTGCAG”, the binding signal is 8680 fluorescence intensity (a.u.).

As to “ATATATATATATATATATATATGTGTGTGTGTGTGTGTCCCGGAGTCACCTAGTGCAG”, the binding signal was 14500 fluorescence intensity (a.u.).

“CATCCCTGCTTATTTCTGCCAGTTGCGTCGATTGGTATCTCGGAGTCACCTAGTGCAG”: the binding signal is 10400 fluorescence intensity (a.u.).

On to “CCCAAGGAATTGTGCTTGCTCACCAAGACACGCCAGCTTCCGGAGTCACCTAGTGCAG”, for which the binding signal was 8510 fluorescence intensity (a.u.).

As for “TCACCACATTGTGCTTTATTGCTTGTTTTCGATCTATCTACGGAGTCACCTAGTGCAG”, the binding signal was 10100 fluorescence intensity (a.u.).

On to “ACGCTCTTCCCAATCGAGGTTAGTCTCCATCTTGCTGTTCCGGAGTCACCTAGTGCAG”, for which the binding signal is 8580 fluorescence intensity (a.u.).

In the case of “TTGTTGGTCTCTCCATGACTCCACTTTTAAATGGATCTGCCGGAGTCACCTAGTGCAG”, the binding signal is 8730 fluorescence intensity (a.u.).

In the case of “ATACAGGGAGGGTCCATTTGATTATTATCCAGCTGTTCTTCGGAGTCACCTAGTGCAG”, the binding signal was 13300 fluorescence intensity (a.u.).

Take “CCCGGCCGCCGCGCCGCAGCTTTGACCGGCGTCCCATGGCCGGAGTCACCTAGTGCAG”: the binding signal was 9250 fluorescence intensity (a.u.).

For the sequence “CGAAAAGCGGCGGGTTCCCTTCCGTTTCCTGCCCAACCGCCGGAGTCACCTAGTGCAG”, the binding signal was 8130 fluorescence intensity (a.u.).

Turning to “TGCCACCTCCACCGTGCGTCGCTCCTTTCCCGGCGTCTCCCGGAGTCACCTAGTGCAG”, the binding signal was 10300 fluorescence intensity (a.u.).

On to “CTCCGTCCACCCCGCCGCACCGACACTCTCCTCCGCCATGCGGAGTCACCTAGTGCAG”, for which the binding signal is 9660 fluorescence intensity (a.u.).

Take “AATTGCATCTTTTGTTTGTTGTTGCTTGTGCTTTGGTGTGCGGAGTCACCTAGTGCAG”: the binding signal was 9110 fluorescence intensity (a.u.).

Consider “ATCACAGGTTTGCTCCCATACATCTTTTGCATTTGTACTACGGAGTCACCTAGTGCAG”, for which the binding signal is 9630 fluorescence intensity (a.u.).

Turning to “CGACACCCTATATACCCGATGTGACACGCCAAAACTTTACCGGAGTCACCTAGTGCAG”, the binding signal is 8140 fluorescence intensity (a.u.).

For “TCTGTGTTTTTCCTGTGGTCCAATCAAACGGTCATTCCTACGGAGTCACCTAGTGCAG”, the binding signal was 9050 fluorescence intensity (a.u.).

For the sequence “AGTGGCCCGACTCTCTCATCCCTCCGGCTTCCGGAATCCCCGGAGTCACCTAGTGCAG”, the binding signal is 9200 fluorescence intensity (a.u.).

“GTGATTTGACTGTTCCTTTTTTATTAGAGGGTAAGTTGACCGGAGTCACCTAGTGCAG”: the binding signal is 9330 fluorescence intensity (a.u.).

The values above are taken from article PMC7819943, “Rice protein-binding microarrays: a tool to detect cis-acting elements near promoter regions in rice”.
